At least one compound was matched to its structure with a doubt left.
Test system: NEUROG3 and NKX2.2 mRNA transcripts
Assay: qPCR analysis of NEUROG3 and NKX2.2 transcripts at day 8 of differentiation
Format: cell-based, human
Conditions: day 8, compared to RCN condition / during RCN or R treatment
Description: Total RNA was isolated with TRIZOL (Sigma) or micro/mini RNAeasy kit (Qiagen) and reverse transcribed using the iScript cDNA Kit (Bio-Rad) according to manufacturer's instructions. qPCR analysis was performed on an ABI 7900 HT Fast Real-Time PCR System (Applied Biosystems) and CFX Connect Real Time System (Biorad) using standard protocols. Primers were Taqman Probes (Applied Biosystems) and/or as published previously (Liu et al, 2014). P-values were calculated using a two-tailed student's t-test.
To characterize the type of progenitors present in differentiating cultures at the point of endocrine induction, we performed a detailed time course analysis for the expression of pancreatic markers PDX1, NKX6.1, NEUROG3, GCG and INS (FIG. 7). […] Indeed, the expression of NEUROG3 can be detected as early as day 6, when NKX6.1 protein is absent from all cells (FIGS. 7A and B). […] We thus expected that robust generation of PDX1+/NKX6.1+ progenitor cells prior to induction of NEUROG3 would allow efficient generation of beta-like cells in vitro. […] Spheres cultured under each condition were analyzed at day 9.5 by flow cytometry to quantify the expression of PDX1 and NKX6.1, and by conventional immunofluorescence analysis for NKX6.1 and NEUROG3 expression. […]

CC1=C(/C=C/C(C)=C/C=C/C(C)=C/C(=O)O)C(C)(C)CCC1 [retinoic acid]
NEUROG3 and NKX2.2 mRNA transcripts: significantly lower levels

Source: patent US10975355B2, “Controlled induction of human pancreatic progenitors produces functional beta-like cells” (THE REGENTS OF THE UNIVERSITY OF CALIFORNIA, priority 2015, dated 2021)
